## Cleaved PARP after 72 h of treatment

Drugs:
fingolimod, 10 µM: CCCCCCCCc1ccc(CCC(N)(CO)CO)cc1
cisplatin, 8 µM: N.N.[Cl][Pt][Cl]
crizotinib, 1 µM: C[C@@H](Oc1cc(-c2cnn(C3CCNCC3)c2)cnc1N)c1c(Cl)ccc(F)c1Cl
TCS401, 8.33 µM: O=C(O)C(=O)Nc1sc2c(c1C(=O)O)CCNC2

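Human melanoma cells were exposed to a pair of drugs for 72 h in 1,536-well plates and read by automated microscopy after fixing and staining. Values are the share of nuclei positive for cleaved PARP as a percentage of the same share in the DMSO control: 100 is the control level, higher means more apoptosis. Concentrations were fixed for each drug; these are the higher of two levels. These are primary screening values without error estimates. Basal and induced levels differ widely between cell lines.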 An unselected part of the screen is shown. A dash means that no value is listed here.

| # | Cell line | crizotinib and fingolimod | TCS401 and fingolimod | TCS401 and crizotinib | crizotinib and cisplatin | fingolimod and cisplatin | TCS401 and cisplatin |
|---|---|---|---|---|---|---|---|
| 1 | SK-MEL-28 | 9110 | - | 131 | 129 | 769 | 202 |
| 2 | RPMI-7951 | 3390 | 2180 | 207 | 346 | 3170 | 40.2 |
| 3 | IPC-298 | 3790 | 75.5 | 45.2 | 53.3 | 104 | 132 |
| 4 | C32 | 315 | 682 | 77.2 | 193 | 594 | 262 |
| 5 | WM3619 | 1770 | 3150 | 123 | 87.6 | 3290 | 102 |
| 6 | COLO 829 | 916 | 127 | 82.0 | 150 | 186 | 99.2 |
| 7 | WM3526 | 313 | 165 | 105 | 255 | 349 | 202 |
| 8 | WM1745 | 2000 | - | - | 192 | 520 | - |
| 9 | COLO 792 | 8670 | 2160 | 143 | 139 | 3080 | 71.7 |
| 10 | WM115 | 432 | 1660 | 229 | 79.0 | 8800 | 53.1 |
| 11 | LOX IMVI | 145 | 192 | 66.5 | 59.8 | 126 | 171 |
| 12 | WM451Lu | 474 | 7660 | 129 | 84.7 | 470 | 136 |
| 13 | SK-MEL-5 | 136 | 79.8 | 216 | 406 | 78.0 | 123 |
| 14 | A2058 | 1230 | 1110 | 135 | 188 | 1200 | 97.0 |
| 15 | UACC-257 | 153 | 77.2 | 77.4 | 126 | 223 | 98.3 |
| 16 | 501mel | - | 4350 | 83.5 | - | - | 181 |
| 17 | COLO 800 | 342 | 267 | 79.1 | 100 | 403 | 119 |
| 18 | WM1716 | 175 | 498 | 105 | 456 | 64.2 | 68.8 |
| 19 | LB2518-MEL | 28900 | 57100 | 199 | 187 | 35700 | 28.6 |
| 20 | UACC-62 | 144 | 369 | 317 | 192 | 301 | 299 |
| 21 | MeWo | 1430 | 337 | 155 | 96.4 | 64.5 | 37.3 |
| 22 | SK-MEL-2 | 13700 | 5110 | 91.2 | 127 | 834 | 146 |
| 23 | A375 | 119 | 63.8 | 30.3 | 259 | 90.3 | 367 |
| 24 | G-361 | 11900 | 11100 | 87.5 | 135 | 5520 | 88.4 |
| 25 | IST-MEL1 | 397 | 900 | 244 | 26.7 | 303 | 182 |
| 26 | RVH-421 | 1550 | 3200 | 228 | 135 | 2140 | 60.0 |
| 27 | MZ2-MEL | 4730 | 710 | 148 | 240 | 93.8 | 328 |
| 28 | SK-MEL-30 | 1780 | 591 | 109 | 88.1 | 2710 | 136 |
| 29 | A101D | 1360 | 499 | 120 | 100 | 550 | 221 |
| 30 | MEL-HO | 1690 | 929 | 278 | 118 | 201 | 88.0 |

3 of the entries, repeated:

Cell line	crizotinib and fingolimod	TCS401 and fingolimod	TCS401 and crizotinib	crizotinib and cisplatin	fingolimod and cisplatin	TCS401 and cisplatin
RPMI-7951	3390	2180	207	346	3170	40.2
RVH-421	1550	3200	228	135	2140	60.0
SK-MEL-28	9110	-	131	129	769	202

Values as published with doi:10.1371/journal.pone.0140310, rounded.